# PubChem BioAssay AID1671190 (National Center for Advancing Translational Sciences (NCATS), 2021)
# Protein sequences, listed by entry. Tags and fused reporters are not part of them. Lines headed by an entry give the natural chain unless they say otherwise; changes in a name come on top.
# UniProt P18054: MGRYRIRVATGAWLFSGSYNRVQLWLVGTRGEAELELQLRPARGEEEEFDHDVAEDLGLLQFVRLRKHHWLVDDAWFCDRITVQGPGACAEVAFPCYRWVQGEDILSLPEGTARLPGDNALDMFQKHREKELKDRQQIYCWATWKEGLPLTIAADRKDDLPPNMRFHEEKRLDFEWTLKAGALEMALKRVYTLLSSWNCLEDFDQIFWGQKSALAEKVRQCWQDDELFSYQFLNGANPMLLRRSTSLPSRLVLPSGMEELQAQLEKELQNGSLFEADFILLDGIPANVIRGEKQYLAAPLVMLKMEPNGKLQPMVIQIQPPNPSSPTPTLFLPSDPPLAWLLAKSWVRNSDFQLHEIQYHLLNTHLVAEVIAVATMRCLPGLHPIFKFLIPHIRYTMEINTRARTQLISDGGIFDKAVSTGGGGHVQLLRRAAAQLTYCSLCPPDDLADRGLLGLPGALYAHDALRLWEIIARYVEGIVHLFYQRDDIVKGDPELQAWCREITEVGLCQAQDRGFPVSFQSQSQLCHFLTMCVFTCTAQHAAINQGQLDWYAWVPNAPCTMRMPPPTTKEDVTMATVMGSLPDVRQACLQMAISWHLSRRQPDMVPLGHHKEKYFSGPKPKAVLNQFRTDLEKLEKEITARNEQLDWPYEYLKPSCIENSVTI
# “And” between values parts separate entries of the source, which are not always exact repeats. Equal values may be shown once. Screen size: about 580,000 compounds; about 6,100 (1.1%) were called active. The inconclusive results got no clear call from the source; some entries with a clear call stand among them for comparison. Calls come from the whole dose curve; as a rule, active = well fitted inhibition curve with a large enough effect; inconclusive = small, poorly fitted or top-dose-only effect, or another doubt; inactive = no such curve, though single readings can be large or run the other way. Where the call is inconclusive, the potency comes from a doubtful curve fit.
# Biological target: Polyunsaturated fatty acid lipoxygenase ALOX12 (Homo sapiens) (UniProt P18054)
# Assay: Primary qHTS assay for inhibitors of human arachidonate 12S-lipoxygenase (ALOX12): Round 2
# Settings: purified 12hLO, xylenol orange hydroperoxide absorbance; activity change, negative = inhibition: at 108 µM (top of the series) unless noted
# Outline: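 Purified human 12hLO at 150 nM in 25 mM Hepes, 0.01% Triton X-100, pH 7.0, preincubated 15 min at room temperature with compound. Reaction started with 40 uM arachidonic acid, 30 min at room temperature. Hydroperoxide measured by Fe-xylenol orange, 573/405 nm absorbance ratio.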
# % is set by controls: 0 for no effect and ±100 for the full control effect; potency is the fitted concentration of half-maximal effect.
Structure (SMILES),Potency,"activity change, negative = inhibition"
Cc1cc(Cl)ccc1NC(=O)c1ccc(NC(=O)C2=CSCCO2)cc1,"inconclusive: 31.6 µM [inhibitor, full curve, poor fit]",–
C/C=C/Cn1c(SCC(N)=O)nc2c1c(=O)[nH]c(=O)n2C,"inconclusive: 44.7 µM [inhibitor, partial curve, poor fit]",–
O=C(CSc1nnc2ccc(-c3ccncc3)nn12)N1CCN(c2ccccc2)CC1,"inconclusive: 89.1 µM [inhibitor, partial curve, poor fit]",–
COc1ccc(NC(=O)CSc2nc(O)cc(=O)n2-c2ccc(OC)cc2)cc1,active: 12.6 µM,–
FC(F)(F)c1cccc(CNC(=S)Nc2ccccc2)c1,"inconclusive: 44.7 µM [inhibitor, partial curve, poor fit]",–
O=C(O)c1ccc(-n2cc(-c3cc4ccccc4oc3=O)[nH]c2=S)cc1,active: 31.6 µM,–
CCCCCCn1cc(CN2CC(N(C)CCC)CS2(=O)=O)nn1 (configuration not stated),"inconclusive: 70.8 µM [inhibitor, partial curve, poor fit]",–
N#Cc1nc(-c2ccccc2)oc1NCCCN1CCOCC1,"inconclusive: 100 µM [inhibitor, single point]",–
CCCCCC(=O)NC(=S)Nc1cccc(C(C)=O)c1,"inconclusive: 44.7 µM [inhibitor, partial curve]",–
COc1cc(C(=O)NCCc2c[nH]c3ccccc23)ccc1OCc1c(C)noc1C,–,inactive: 0%
CCCCCNc1ncnc2c1CN(C1CCNCC1)C(=O)CN2C,"inconclusive: 20 µM [inhibitor, partial curve, poor fit]",–
COc1ccc2c(C)c(CC(=O)NC3CCCC3)c(=O)oc2c1OC,–,inactive: 1.56%
COc1ccc(C2=[N+](C)CCn3cccc32)c(OC)c1,"inconclusive: 44.7 µM [inhibitor, partial curve, poor fit]",–
CCOC(C)C(=O)NCCc1cccs1 (configuration not stated),–,inactive: -2.36%
S=C(NC1CCCCC1)NN(c1ccccc1)c1ccccc1,active: 39.8 µM,–
Cc1ccc(C(=O)C(=O)O)cc1,"inconclusive: 25.1 µM [inhibitor, partial curve, poor fit]",–
Cc1c(N=NC2=C(O)CCCC2=O)c(=O)n(-c2ccccc2)n1C,"inconclusive: 44.7 µM [inhibitor, partial curve, poor fit]",–
Cc1occc1-c1nnc(SCc2cc(Cl)c3c(c2)OCCO3)n1C,"inconclusive: 126 µM [inhibitor, single point]",–
Cc1ccccc1NC(=O)Cc1nnc(N)s1,"inconclusive: 44.7 µM [inhibitor, partial curve, poor fit]",–
Cc1ccc(N2CCN(CCc3nc4cc(NC(=O)c5ccco5)ccc4n3C)CC2)cc1,–,inactive: 0.358%
Cc1ccc(-c2cc(C34CC5CC(CC(C5)C3)C4)nc3sc4c(c23)CCC4)cc1,–,inactive: -29.8%
Nc1c(-c2nc(-c3cccs3)no2)nnn1-c1cccc(F)c1,–,inactive: -9.01%
O=C(Nc1ccc(F)c(Cl)c1)c1ccc[n+]([O-])c1,–,inactive: 8.64%

Structure (SMILES),Potency,"activity change, negative = inhibition"
CN(C)c1ccc(-c2csc(C(O)(c3ccccc3)C(F)(F)F)n2)cc1 (configuration not stated),active: 17.8 µM,–
Cc1ccc(CN(C(=O)COc2ccc(Cl)c(C)c2)c2ccccn2)o1,"inconclusive: 89.1 µM [inhibitor, partial curve, poor fit]",–
CCOc1ccc2ncc(S(=O)(=O)c3ccc(C)cc3)c(N3CCC4(CC3)OCCO4)c2c1,–,inactive: 11%
COc1ccc2nc(NC(=O)c3cc(-c4ccc(C)c(C)c4)on3)sc2c1,"inconclusive: 141 µM [inhibitor, partial curve, poor fit]",–
COc1ccc(-c2csc(NC(=O)C3CC(=O)N(Cc4ccco4)C3)n2)cc1 (configuration not stated),"inconclusive: 50.1 µM [inhibitor, partial curve, poor fit]",–
Cc1oc2ncn(C)c(=O)c2c1C(=O)Nc1ccccn1,–,inactive: 0%
CCCn1c(=O)[nH]c(=O)c2c1nc(-c1ccc(O)cc1)n2CCOC,–,inactive: -74.6%
O=C(COC(=O)c1cccc(S(=O)(=O)NCc2ccco2)c1)c1ccccc1,"inconclusive: 25.1 µM [inhibitor, single point]",–
CCOC(=O)c1[nH]c2ccc(F)cc2c1NC(=O)c1ccccc1C(=O)O,"inconclusive: 112 µM [inhibitor, single point]",–
COCCN1CCc2c(C)nc3c(-c4ccc(OC)c(OC)c4)cnn3c21,–,inactive: 0%
COc1ccc(OC)c(NC(=O)C2CC(=O)N(c3ccc(Br)cc3)C2)c1 (configuration not stated),"inconclusive: 100 µM [inhibitor, single point]",–
Cc1csc(NC(=O)c2ccccc2)n1,–,inactive: -4.43%
Cc1nc2nc(SCc3c(F)cccc3Cl)nn2c(C)c1Cc1ccccc1,–,inactive: -18.2%
Cc1nc(CN2C[C@H](C(=O)NCc3cccc(Cl)c3)C[C@@H]2c2ccc(F)cc2)cs1,"inconclusive: 25.1 µM [inhibitor, full curve, poor fit]",–
COC(=O)[C@@H](N)Cc1ccc(O)c(O)c1,"inactive and inconclusive: 1.28 µM [inhibitor, partial curve]",–
COc1ccc(C(=O)N2CCC3(CC2)CN(c2ccc(-c4ccccc4)cc2)C3)cc1,"inconclusive: 31.6 µM [inhibitor, single point]",–
C=CCNc1nc2ccccc2nc1NS(=O)(=O)c1cccs1,"inconclusive: 39.8 µM [inhibitor, partial curve, poor fit]",–
CCOC(=O)[C@H]1[C@H]2COc3ccc(Cl)cc3[C@@H]2N2C(=O)CN(Cc3ccc(OC)cc3)C(=O)[C@@]12C,"inconclusive: 44.7 µM [inhibitor, partial curve, poor fit]",–
CCc1ccc(C(=O)NNc2ccc(Cl)cc2)cc1,–,inactive: -7.4%
Cc1ccc(NC(=O)C2CCN(S(=O)(=O)c3ccccc3)CC2)cc1,–,inactive: 0%
COc1cc(C(O)c2nc(-c3cc4ccccc4o3)cs2)ccc1F (configuration not stated),"inconclusive: 10 µM [inhibitor, full curve]",–
CSc1nc(=S)n(Cc2ccccc2)c(C)c1C(C)=O,"inconclusive: 44.7 µM [inhibitor, partial curve, poor fit]",–
O=c1cc(N2CCCN(c3ccc(C(F)(F)F)cn3)CC2)nc2ccccn12,"inconclusive: 35.5 µM [inhibitor, partial curve, poor fit]",–

Structure (SMILES),Potency,"activity change, negative = inhibition"
O=C(CN1C(=O)/C(=C2/SC(=S)N(CCS(=O)(=O)O)C2=O)c2ccccc21)Nc1cccc(C(F)(F)F)c1,"inconclusive: 44.7 µM [inhibitor, partial curve, poor fit]",–
CC1(Cc2ccc(OC(F)(F)F)cc2)C(=O)Nc2ccc(S(=O)(=O)NC3CCCCC3)cc21 (configuration not stated),"inconclusive: 112 µM [inhibitor, partial curve, poor fit]",–
O=C(COc1ccc([N+](=O)[O-])c(F)c1)Nc1ccc2c(c1)CCC2,"inconclusive: 35.5 µM [inhibitor, partial curve, poor fit]",–
CCCn1c(N)c(C(=O)COc2ccc(Br)cc2F)c(=O)n(C)c1=O,–,inactive: -2.01%
O=C(c1ccc2c(c1)N(Cc1ccccc1)C(=O)CS2)N1CCOCC1,–,inactive: -1.87%
Cc1ccc2c(Cl)cc(Cl)c(OCC(=O)NC(C)C(C)C)c2n1 (configuration not stated),"inconclusive: 28.2 µM [inhibitor, partial curve, poor fit]",–
COc1ccc(-c2noc([C@@H](C)N(C)C)c2C(=O)O)cc1,"inconclusive: 11.2 µM [inhibitor, full curve]",–
C[C@H](N)C(=O)N1CCC(n2nccc2NC(=O)Nc2ccccc2Cl)CC1,"inconclusive: 22.4 µM [inhibitor, partial curve, poor fit]",–
O=C(CCl)N1CCN(C/C=C/c2ccccc2)CC1,"inconclusive: 14.1 µM [inhibitor, full curve, poor fit]",–
COc1ccc(-c2nc3c(Br)c(N)c(Br)cc3o2)cc1,–,inactive: -21%
Cc1cccc(N2CCN(Cc3ncc(-c4ccccc4)o3)CC2)c1C,–,inactive: -10.6%
O=C(NCC(=O)N(c1ccc(F)cc1)C(C(=O)NC1CCCCC1)c1ccncc1)c1ccco1 (configuration not stated),–,inactive: 5.88%
COC(=O)c1cc(C)nc2c1C(=O)C(=O)C=C2N1CCOCC1,"inconclusive: 35.5 µM [inhibitor, partial curve, poor fit]",–
O=S(=O)(c1ccc2c(c1)OCCO2)N1CCN(Cc2ccc3c(c2)OCO3)CC1,"inconclusive: 28.2 µM [inhibitor, full curve, poor fit]",–
O=C1C(Cl)=C(NCCc2ccccc2)C(=O)N1CCc1ccccc1,"inconclusive: 89.1 µM [inhibitor, partial curve, poor fit]",–
COC(=O)C1=C(C)N(C(C)c2ccccc2)C(=O)/C1=C\c1ccco1 (configuration not stated),"inconclusive: 50.1 µM [inhibitor, partial curve, poor fit]",–
COc1ccc(C(=O)N(C)Cc2ccc(C)o2)cc1OC1CCN(C(C)=O)CC1,"inconclusive: 56.2 µM [inhibitor, partial curve, poor fit]",–
Cc1cc(Br)cn2c(Cc3ccccc3)c(-c3ccco3)nc12,"inconclusive: 11.2 µM [inhibitor, full curve, poor fit]",–
CCc1c(C(=O)N2CCC(CO)(Cc3ccccc3)CC2)[nH]c2ccccc12,"inconclusive: 1.78 µM [inhibitor, full curve, poor fit]",–
O=C(OCC(=O)c1c[nH]c2ccccc12)c1cc2ccccc2cc1O,"inconclusive: 56.2 µM [inhibitor, partial curve, poor fit]",–
Cc1ccc(C(=O)Nc2cc(NC(=O)c3ccc(C)c(C)c3)cc(C(=O)O)c2)cc1C,"inconclusive: 44.7 µM [inhibitor, partial curve, poor fit]",–

# Among those listed so far, 12 have a Cl atom:
Structure (SMILES),Potency,"activity change, negative = inhibition"
Cc1cc(Cl)ccc1NC(=O)c1ccc(NC(=O)C2=CSCCO2)cc1,"inconclusive: 31.6 µM [inhibitor, full curve, poor fit]",–
Cc1occc1-c1nnc(SCc2cc(Cl)c3c(c2)OCCO3)n1C,"inconclusive: 126 µM [inhibitor, single point]",–
O=C(Nc1ccc(F)c(Cl)c1)c1ccc[n+]([O-])c1,–,inactive: 8.64%
Cc1ccc(CN(C(=O)COc2ccc(Cl)c(C)c2)c2ccccn2)o1,"inconclusive: 89.1 µM [inhibitor, partial curve, poor fit]",–
Cc1nc2nc(SCc3c(F)cccc3Cl)nn2c(C)c1Cc1ccccc1,–,inactive: -18.2%
Cc1nc(CN2C[C@H](C(=O)NCc3cccc(Cl)c3)C[C@@H]2c2ccc(F)cc2)cs1,"inconclusive: 25.1 µM [inhibitor, full curve, poor fit]",–
CCOC(=O)[C@H]1[C@H]2COc3ccc(Cl)cc3[C@@H]2N2C(=O)CN(Cc3ccc(OC)cc3)C(=O)[C@@]12C,"inconclusive: 44.7 µM [inhibitor, partial curve, poor fit]",–
CCc1ccc(C(=O)NNc2ccc(Cl)cc2)cc1,–,inactive: -7.4%
Cc1ccc2c(Cl)cc(Cl)c(OCC(=O)NC(C)C(C)C)c2n1 (configuration not stated),"inconclusive: 28.2 µM [inhibitor, partial curve, poor fit]",–
C[C@H](N)C(=O)N1CCC(n2nccc2NC(=O)Nc2ccccc2Cl)CC1,"inconclusive: 22.4 µM [inhibitor, partial curve, poor fit]",–
O=C(CCl)N1CCN(C/C=C/c2ccccc2)CC1,"inconclusive: 14.1 µM [inhibitor, full curve, poor fit]",–
O=C1C(Cl)=C(NCCc2ccccc2)C(=O)N1CCc1ccccc1,"inconclusive: 89.1 µM [inhibitor, partial curve, poor fit]",–
